No constants are given. Whether binding was seen depends on the method and setting. For some of these results: Binding seen in cells or lysates may run through a third protein. Some binding calls cover weakened binding; strength is not graded here.

Amino acid sequences for entries named in this document (tags omitted).
UniProt Q8N884: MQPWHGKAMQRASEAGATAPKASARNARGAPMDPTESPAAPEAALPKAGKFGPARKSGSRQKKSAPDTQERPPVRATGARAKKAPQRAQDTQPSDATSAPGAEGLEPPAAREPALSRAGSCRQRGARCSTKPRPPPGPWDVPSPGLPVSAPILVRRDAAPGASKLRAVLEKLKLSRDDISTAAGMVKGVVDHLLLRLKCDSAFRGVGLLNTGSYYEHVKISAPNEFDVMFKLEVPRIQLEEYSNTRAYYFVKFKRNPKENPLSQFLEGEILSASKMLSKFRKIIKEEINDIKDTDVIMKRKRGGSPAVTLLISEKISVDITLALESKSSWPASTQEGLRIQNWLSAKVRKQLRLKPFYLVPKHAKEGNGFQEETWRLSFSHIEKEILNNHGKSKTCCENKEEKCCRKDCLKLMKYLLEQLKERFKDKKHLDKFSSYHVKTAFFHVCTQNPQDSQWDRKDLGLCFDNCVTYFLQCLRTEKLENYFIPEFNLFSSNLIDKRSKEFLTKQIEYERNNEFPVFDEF
UniProt P11387: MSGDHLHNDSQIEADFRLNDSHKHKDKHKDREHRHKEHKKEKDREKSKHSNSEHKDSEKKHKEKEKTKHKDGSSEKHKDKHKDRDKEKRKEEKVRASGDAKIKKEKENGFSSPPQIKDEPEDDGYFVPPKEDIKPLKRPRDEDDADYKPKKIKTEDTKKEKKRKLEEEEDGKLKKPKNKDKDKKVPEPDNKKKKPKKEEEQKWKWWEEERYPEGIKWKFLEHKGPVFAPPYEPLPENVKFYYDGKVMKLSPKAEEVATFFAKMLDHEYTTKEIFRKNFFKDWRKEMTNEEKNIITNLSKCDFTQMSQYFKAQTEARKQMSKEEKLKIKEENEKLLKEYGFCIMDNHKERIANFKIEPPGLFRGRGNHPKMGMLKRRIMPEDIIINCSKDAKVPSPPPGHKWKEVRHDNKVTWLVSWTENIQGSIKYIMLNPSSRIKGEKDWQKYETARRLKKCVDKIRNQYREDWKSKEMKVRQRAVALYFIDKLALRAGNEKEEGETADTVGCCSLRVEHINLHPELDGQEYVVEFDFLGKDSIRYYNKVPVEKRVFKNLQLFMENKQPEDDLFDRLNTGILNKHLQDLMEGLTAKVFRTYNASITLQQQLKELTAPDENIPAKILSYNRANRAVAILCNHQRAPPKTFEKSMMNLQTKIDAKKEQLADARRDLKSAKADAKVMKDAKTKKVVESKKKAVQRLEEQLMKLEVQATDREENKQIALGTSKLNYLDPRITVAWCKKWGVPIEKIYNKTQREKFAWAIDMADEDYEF

This passage reports binding results from PMC7031389.

One assay addresses GST-tagged cGAS (UniProt Q8N884). The experiment in a line: pull-down; GST or GST-tagged cGAS immobilized on glutathione-sepharose beads, incubated with His-tagged TOP1 at 4 °C for 16 h; washed three times with buffer including 150 mM NaCl; immunoblot; both purified.
Assay [1] concerns the target Cyclic cGMP-AMP synthase (cGAS), endogenous in IMR90 cells (human (endogenous in IMR90)) (UniProt Q8N884). As to the kind of experiment: co-IP; endogenous proteins in RAS-induced senescent IMR90 cells with HMGB2 knockdown; (ISD)2 45 bp dsDNA added to the lysate supernatant; immunoblot. (In general: In western blotting, separated proteins are transferred to a membrane and probed.)

The target is the same in assay [2]. As to the kind of experiment: co-IP; endogenous proteins in control and RAS-induced senescent IMR90 cells; RIPA lysate, supernatant incubated with antibody or isotype IgG (5 ug) at 4 °C overnight, protein A/G beads; immunoblot.
Assay [3] shares this target. As to the kind of experiment: condition: only HMGB2 knockdown cells, DNA free co-IP lysates; co-IP; endogenous proteins in RAS-induced senescent IMR90 cells with HMGB2 knockdown; DNA free co-IP lysates (RIPA supernatant); immunoblot.

Consider “Recombinant his-tagged TOP1 protein (from UniProt P11387 1-765)”, for which, in the assay with GST-tagged cGAS, the binding entry is recorded as “binds”.

Consider “Topoisomerase 1 (TOP1), endogenous in IMR90 cells (from UniProt P11387 1-765)”, for which the binding result in assay [1] is “binds”; in assay [2], “binds”; in assay [3], “no binding”.
